# Laboratory results as given in patent CN116535503A.
# Results are given in words; binding and its absence hold for the method and conditions named. Some results given as binding are weak or reduced against the parent protein; the word gives no strength.
# T1: GDF15-mFC蛋白(GDF15:Genbank登记号NM_004864.3;mFC:Genbank登记号AAH31470.1) (human; mouse) (UniProt Q99988)
# T1 sequence (looked up): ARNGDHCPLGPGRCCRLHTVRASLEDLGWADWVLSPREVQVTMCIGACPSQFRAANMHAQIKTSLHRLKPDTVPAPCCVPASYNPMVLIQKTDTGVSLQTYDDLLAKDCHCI
# Target: T1, GDF15-mFC蛋白(GDF15:Genbank登记号NM_004864.3;mFC:Genbank登记号AAH31470.1) (human; mouse)
# Test: competitive ELISA: blocks GDF15-mFc binding to coated GFRAL-HIS
binder,measurement,value
"53E5(hz) (antibody, human IgG1, kappa, V domains shown) VH: QVQLQESGPGLVKPSETLSLTCTFSGFSLSTSGMGVGWIRQPPGKGLEWLAHILWDDVKRYNPALKSRLTISKDSSKSQISLKLSSVTAADTAVYYCVQMAWDWFAYWGQGTTVTVSS VL: DIQMTQSPSSLSASVGDRVTITCKASQNVDTNVAWYQQKPGQSPKALIYSASYRSSGVPSRFSGSGSGTDFTLTISSLQPEDFATYYCQQYHSYPTFGQGTRLEIKR",binding,binds
